Source: paper PMC10364317, “Regulation of indole‐3‐acetic acid biosynthesis and consequences of auxin production deficiency in Serratia plymuthica” (Microbial Biotechnology, 2023)
Construct, isoform or probe ends are uncertain for at least one entry. Tags and fusion partners may be left off the protein sequences shown.

Biological target: T1, TyrR (TyrRA153) (Serratia plymuthica A153) (UniProt A0A318P557)
T1 sequence (looked up, limits assumed): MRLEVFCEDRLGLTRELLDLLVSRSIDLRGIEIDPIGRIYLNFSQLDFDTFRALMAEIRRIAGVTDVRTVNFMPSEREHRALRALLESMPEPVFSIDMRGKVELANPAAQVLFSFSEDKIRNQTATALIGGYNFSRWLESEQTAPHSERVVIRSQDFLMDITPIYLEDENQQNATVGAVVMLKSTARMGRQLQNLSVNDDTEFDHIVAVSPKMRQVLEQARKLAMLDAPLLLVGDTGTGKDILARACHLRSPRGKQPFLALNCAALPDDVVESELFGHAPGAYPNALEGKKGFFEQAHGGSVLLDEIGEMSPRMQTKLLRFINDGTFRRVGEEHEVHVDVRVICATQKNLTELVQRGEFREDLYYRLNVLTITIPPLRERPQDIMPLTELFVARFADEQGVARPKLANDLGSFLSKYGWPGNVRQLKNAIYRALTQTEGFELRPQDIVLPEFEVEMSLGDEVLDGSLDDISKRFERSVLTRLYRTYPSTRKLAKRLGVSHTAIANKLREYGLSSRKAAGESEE
Assay: ITC
Details: L-Trp (e.g. 1 mM), 10 mM MgCl2; ITC: 5 mM Tris, 5 mM PIPES, 5 mM MES, 150 mM NaCl, 10 mM MgCl2, 10 mM beta-mercaptoethanol, 10% glycerol, pH 7.5, 10 C; 100 uM DNA injected into 5-20 uM TyrR; recombinant protein; protein details: N-terminal His6

CCCCTGTAAAGGAGCCATTACATCAA (double strand) [Pipdc-wt-ITC (wild-type TyrR box)]
Kd: 442 nM
